This is one part of the list. Residues, ends and D or L forms follow the SMILES beside them. *: point of attachment. Cbz = O=C(OCc1ccccc1)*
Assays:
Experiment in all cases: log2 fold change, soluble protein after heating vs DMSO (PISA); higher = thermal stabilisation; K562 cells, 10 uM, 30 min; active = over 0.2 and 3.5 SD of the protein, either way, in both replicates (recomputed)
erlotinib = compound: C#Cc1cccc(Nc2ncnc3cc(OCCOC)c(OCCOC)cc23)c1 [erlotinib]
Method in brief: (§1)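 Thermal stability values are relative to control samples and come from duplicates. They are expressed as log2 fold changes. For measurement, K562 cells (2×10^6 cells/mL) received 10 μM compound for 30 min, and aliquots were heated for 3 min over 48°C-58°C, pooled, and extracted at 4°C in PBS with 0.5% NP-40. Soluble protein, the supernatant after 21,000xg for 90 min, was quantified by TMTpro 16plex LC-MS/MS with equalised channel sums.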

Protein sequences, listed by entry. Tags and fused reporters are not part of them. Lines headed by an entry give the natural chain unless they say otherwise; changes in a name come on top.
UniProt P22695: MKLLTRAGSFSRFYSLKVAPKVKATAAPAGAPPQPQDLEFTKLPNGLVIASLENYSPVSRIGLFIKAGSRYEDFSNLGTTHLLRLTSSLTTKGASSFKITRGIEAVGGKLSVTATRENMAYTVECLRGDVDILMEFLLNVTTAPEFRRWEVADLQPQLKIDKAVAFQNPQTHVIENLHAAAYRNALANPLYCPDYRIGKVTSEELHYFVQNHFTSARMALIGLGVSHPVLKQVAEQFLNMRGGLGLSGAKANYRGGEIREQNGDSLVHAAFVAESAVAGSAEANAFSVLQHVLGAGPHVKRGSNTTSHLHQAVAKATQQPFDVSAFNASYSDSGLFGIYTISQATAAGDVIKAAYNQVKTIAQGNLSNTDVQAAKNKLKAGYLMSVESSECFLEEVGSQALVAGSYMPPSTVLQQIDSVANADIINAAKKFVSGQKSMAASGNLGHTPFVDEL
UniProt O94763, whole entry, looked up: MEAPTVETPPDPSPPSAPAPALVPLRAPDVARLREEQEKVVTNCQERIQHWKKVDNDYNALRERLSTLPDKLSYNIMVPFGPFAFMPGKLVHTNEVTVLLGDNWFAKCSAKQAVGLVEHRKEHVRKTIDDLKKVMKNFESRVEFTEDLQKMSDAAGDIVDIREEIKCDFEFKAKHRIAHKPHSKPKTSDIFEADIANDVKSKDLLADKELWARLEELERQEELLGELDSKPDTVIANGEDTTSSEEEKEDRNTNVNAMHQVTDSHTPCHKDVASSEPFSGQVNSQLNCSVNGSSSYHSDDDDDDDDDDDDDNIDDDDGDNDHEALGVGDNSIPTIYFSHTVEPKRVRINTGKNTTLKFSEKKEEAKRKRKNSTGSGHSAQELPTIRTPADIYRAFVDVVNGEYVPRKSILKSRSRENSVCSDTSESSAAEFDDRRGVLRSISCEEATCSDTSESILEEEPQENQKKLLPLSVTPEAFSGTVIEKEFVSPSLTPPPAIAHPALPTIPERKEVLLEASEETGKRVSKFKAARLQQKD
UniProt Q70CQ3: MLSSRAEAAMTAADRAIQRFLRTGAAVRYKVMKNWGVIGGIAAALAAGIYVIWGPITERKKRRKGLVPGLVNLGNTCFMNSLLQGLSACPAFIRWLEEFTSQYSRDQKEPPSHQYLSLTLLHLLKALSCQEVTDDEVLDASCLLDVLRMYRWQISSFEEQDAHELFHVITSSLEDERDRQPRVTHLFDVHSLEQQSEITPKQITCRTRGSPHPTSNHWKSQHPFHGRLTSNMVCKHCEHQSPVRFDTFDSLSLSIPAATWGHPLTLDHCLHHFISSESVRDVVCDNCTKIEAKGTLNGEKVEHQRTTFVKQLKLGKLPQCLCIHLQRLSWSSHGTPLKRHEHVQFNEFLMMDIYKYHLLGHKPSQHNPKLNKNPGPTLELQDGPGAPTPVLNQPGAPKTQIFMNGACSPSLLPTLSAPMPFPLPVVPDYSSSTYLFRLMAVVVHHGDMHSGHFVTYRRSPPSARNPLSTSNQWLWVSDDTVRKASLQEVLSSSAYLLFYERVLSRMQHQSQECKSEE
UniProt Q93008, whole entry, looked up: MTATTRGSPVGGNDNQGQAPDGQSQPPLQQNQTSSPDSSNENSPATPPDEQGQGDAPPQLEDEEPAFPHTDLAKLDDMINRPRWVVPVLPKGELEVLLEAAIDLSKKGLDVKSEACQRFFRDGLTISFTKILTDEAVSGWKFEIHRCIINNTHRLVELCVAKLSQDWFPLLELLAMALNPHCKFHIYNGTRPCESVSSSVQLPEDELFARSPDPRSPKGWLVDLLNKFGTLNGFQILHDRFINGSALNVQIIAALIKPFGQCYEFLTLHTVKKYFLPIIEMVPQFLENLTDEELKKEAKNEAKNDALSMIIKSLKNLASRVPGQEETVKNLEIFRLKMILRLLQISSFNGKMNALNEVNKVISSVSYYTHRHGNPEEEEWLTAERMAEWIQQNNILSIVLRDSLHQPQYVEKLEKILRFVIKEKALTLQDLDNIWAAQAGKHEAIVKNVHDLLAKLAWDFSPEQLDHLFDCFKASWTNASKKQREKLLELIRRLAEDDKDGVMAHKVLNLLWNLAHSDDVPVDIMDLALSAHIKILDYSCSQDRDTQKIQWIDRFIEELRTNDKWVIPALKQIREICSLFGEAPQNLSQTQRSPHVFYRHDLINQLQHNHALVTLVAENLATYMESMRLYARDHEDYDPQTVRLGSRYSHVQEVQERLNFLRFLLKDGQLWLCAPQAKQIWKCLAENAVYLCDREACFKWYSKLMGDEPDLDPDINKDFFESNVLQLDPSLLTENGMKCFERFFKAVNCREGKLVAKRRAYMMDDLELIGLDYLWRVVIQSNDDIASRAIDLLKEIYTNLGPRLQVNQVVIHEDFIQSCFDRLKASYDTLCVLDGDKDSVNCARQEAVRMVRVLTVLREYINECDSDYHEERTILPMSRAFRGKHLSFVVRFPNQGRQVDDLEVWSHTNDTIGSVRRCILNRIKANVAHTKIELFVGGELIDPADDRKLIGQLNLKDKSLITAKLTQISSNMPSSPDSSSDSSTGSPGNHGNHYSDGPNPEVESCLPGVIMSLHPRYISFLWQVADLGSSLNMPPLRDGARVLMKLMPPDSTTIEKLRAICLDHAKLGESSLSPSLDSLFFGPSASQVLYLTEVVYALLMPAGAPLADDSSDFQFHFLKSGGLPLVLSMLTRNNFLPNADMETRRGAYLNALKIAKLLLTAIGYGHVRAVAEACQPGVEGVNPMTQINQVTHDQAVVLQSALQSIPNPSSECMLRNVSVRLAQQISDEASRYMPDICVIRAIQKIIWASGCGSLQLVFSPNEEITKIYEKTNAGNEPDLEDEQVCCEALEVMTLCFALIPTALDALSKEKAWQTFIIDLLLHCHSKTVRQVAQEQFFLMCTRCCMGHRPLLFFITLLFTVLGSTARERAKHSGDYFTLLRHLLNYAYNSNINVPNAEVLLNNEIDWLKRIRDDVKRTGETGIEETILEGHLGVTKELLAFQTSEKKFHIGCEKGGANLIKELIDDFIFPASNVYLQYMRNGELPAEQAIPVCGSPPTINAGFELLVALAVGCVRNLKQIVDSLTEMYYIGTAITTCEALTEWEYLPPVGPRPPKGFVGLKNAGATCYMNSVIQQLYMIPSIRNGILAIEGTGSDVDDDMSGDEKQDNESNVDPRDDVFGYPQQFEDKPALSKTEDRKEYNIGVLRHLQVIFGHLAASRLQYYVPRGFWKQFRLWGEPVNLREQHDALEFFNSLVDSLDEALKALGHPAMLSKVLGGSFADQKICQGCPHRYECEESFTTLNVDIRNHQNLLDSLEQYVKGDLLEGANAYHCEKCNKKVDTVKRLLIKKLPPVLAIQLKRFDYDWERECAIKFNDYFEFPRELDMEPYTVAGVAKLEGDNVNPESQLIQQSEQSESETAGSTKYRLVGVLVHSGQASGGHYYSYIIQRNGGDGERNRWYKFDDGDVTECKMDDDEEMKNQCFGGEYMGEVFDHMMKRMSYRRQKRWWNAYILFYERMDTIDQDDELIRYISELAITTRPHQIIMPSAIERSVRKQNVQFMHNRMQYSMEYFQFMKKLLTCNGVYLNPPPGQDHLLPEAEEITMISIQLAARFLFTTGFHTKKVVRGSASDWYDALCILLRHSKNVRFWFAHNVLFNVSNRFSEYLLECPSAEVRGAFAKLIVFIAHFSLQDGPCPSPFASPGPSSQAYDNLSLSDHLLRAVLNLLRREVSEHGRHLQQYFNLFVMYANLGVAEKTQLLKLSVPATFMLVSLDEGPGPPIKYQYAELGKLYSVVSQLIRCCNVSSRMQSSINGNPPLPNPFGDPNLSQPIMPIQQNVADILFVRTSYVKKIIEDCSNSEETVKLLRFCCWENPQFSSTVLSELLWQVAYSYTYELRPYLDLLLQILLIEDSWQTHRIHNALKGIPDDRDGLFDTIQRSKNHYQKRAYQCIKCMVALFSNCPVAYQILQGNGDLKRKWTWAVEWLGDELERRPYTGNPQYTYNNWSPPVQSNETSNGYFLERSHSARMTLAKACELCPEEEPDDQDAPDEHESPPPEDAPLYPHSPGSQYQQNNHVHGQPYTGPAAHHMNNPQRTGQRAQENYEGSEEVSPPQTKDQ
UniProt Q70J99: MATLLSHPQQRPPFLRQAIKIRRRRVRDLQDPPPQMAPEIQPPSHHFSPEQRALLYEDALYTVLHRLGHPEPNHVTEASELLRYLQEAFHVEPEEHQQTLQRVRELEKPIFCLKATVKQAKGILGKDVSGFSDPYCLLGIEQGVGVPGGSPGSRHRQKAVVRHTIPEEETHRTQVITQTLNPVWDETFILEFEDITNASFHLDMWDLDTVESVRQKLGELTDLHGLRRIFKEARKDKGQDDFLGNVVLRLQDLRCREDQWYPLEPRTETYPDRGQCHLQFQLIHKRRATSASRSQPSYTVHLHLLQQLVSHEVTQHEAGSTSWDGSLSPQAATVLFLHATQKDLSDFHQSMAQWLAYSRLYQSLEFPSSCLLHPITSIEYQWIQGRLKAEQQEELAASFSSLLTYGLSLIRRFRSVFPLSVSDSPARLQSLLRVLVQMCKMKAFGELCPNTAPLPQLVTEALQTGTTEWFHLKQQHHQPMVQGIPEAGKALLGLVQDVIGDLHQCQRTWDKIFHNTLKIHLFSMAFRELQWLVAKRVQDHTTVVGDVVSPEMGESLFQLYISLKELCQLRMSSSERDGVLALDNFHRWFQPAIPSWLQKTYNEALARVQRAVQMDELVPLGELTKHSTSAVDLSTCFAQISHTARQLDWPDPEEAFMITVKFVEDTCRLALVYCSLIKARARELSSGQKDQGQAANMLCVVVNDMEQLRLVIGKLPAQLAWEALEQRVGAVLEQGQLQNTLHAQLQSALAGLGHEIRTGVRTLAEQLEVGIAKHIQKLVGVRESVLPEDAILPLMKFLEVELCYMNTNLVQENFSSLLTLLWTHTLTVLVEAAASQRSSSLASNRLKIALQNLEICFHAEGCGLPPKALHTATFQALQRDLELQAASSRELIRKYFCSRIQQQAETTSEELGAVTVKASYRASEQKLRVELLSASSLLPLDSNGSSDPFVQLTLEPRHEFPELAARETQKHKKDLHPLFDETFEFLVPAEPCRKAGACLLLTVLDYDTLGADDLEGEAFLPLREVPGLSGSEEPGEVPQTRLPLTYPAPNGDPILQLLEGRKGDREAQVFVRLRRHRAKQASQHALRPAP
UniProt P55072, whole entry, looked up: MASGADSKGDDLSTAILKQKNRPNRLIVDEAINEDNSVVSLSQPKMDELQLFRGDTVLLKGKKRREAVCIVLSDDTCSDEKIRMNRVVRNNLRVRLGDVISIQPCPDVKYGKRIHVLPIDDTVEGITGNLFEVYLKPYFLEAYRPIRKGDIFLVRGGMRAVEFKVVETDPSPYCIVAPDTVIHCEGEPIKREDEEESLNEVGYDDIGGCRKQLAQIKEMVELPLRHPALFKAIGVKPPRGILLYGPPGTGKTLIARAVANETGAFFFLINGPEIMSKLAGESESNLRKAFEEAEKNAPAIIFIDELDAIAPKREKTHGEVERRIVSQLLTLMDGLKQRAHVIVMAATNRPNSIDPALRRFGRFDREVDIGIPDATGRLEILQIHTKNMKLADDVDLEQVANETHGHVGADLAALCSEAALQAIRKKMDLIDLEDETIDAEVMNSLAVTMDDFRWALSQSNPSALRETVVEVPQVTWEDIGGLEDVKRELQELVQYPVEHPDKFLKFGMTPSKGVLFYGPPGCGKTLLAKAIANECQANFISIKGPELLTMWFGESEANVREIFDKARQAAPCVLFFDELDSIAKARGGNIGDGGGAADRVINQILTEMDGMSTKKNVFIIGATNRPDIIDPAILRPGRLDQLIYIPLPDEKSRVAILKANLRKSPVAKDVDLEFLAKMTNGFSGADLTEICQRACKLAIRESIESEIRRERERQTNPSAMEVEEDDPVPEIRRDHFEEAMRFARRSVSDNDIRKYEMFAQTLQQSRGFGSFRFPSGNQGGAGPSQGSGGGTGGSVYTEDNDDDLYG
UniProt O60701: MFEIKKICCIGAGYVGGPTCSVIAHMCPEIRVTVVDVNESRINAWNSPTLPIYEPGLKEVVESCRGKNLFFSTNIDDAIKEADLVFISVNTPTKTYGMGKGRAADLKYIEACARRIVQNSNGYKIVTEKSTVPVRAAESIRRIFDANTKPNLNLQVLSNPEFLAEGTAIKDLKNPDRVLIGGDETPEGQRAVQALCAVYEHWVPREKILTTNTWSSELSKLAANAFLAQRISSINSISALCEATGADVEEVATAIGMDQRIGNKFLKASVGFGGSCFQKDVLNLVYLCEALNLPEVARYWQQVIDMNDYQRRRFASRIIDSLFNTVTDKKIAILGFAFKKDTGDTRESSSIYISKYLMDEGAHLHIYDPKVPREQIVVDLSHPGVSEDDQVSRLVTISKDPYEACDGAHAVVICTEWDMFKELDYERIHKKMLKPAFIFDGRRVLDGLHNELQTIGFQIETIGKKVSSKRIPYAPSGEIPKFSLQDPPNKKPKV

[1] = compound: C/C(=N\NC(=O)C1=CC(=CC=C1)S(=O)(=O)N2CCOCC2)/C3=C(C=CC(=C3)Cl)O
Method in brief: as §1

[2] = compound: C1=CC(=C(C=C1Cl)C2=NC3=NC=CN=C3C(=N2)NC4=CC=NC=C4)F
Method in brief: as §1

[3] = compound: C1=CC(=CC=C1C2=NC3=C(N2)C=C(C=C3)C(=O)N)OC4=CC=C(C=C4)Cl
Method in brief: as §1

[4] = compound: C1=CC2=C(C=CC(=C2)/C=C\3/C(=O)NC(=NCC4=CC=CS4)S3)N=C1
Method in brief: as §1

[5] = compound: C1=CC2=NC=CN=C2C=C1/C=C/3\C(=O)NC(=O)S3
Method in brief: as §1

[6] = compound: C1=CC=C(C=C1)C2=NC(=C(N2)C3=CC=NC=C3)C4=CC(=C(C=C4)Cl)O
Method in brief: as §1

[7] = compound: C1=CC=C2C(=C1)C3=NNC4=CC=CC(=C43)C2=O
Method in brief: as §1

[8] = compound: C1CCN(C1)C(=O)NC2=CC=CC(=C2)NC3=NC=C(C(=N3)NCCC4=CN=CN4)Br
Method in brief: as §1

[9] = compound: C1CN(CCC1(CC2=CC=C(C=C2)Cl)N)C3=NC=NC4=C3C=CN4
Method in brief: as §1

IRAK-1-4 Inhibitor I = compound: C1COCCN1CCN2C3=CC=CC=C3N=C2NC(=O)C4=CC(=CC=C4)[N+](=O)[O-] [IRAK-1-4 Inhibitor I]
Method in brief: as §1

ibrutinib = compound: C=CC(=O)N1CCC[C@@H](n2nc(-c3ccc(Oc4ccccc4)cc3)c3c(N)ncnc32)C1 [ibrutinib]
Method in brief: as §1

[10] = compound: CC(=O)c1cnc2ccc(-c3cc(Cl)c(O)c(Cl)c3)nc2c1N[C@H]1CC[C@H](CN(C)C)CC1
Method in brief: as §1

ralimetinib = compound: CC(C)(C)Cn1c(N)nc2ccc(-c3[nH]c(C(C)(C)C)nc3-c3ccc(F)cc3)nc21 [ralimetinib]
Method in brief: as §1

[11] = compound: CC(C)(O)CC(=O)NCCn1ccc2ncnc(Nc3ccc(Oc4cccc(C(F)(F)F)c4)c(Cl)c3)c21
Method in brief: as §1

[12] = compound: CC(C)C1=C2N=C(C=C(N2N=C1)NCC3=CC=CC=C3)NCCCCCCN
Method in brief: as §1

[13] = compound: CC(C)C[C@@H](C=O)NC(=O)[C@H](CC(C)C)NC(=O)[C@H](CC(C)C)NC(=O)OCc1ccccc1
Method in brief: as §1

pinometostat = compound: CC(C)N(C[C@H]1O[C@@H](n2cnc3c(N)ncnc32)[C@H](O)[C@@H]1O)[C@H]1C[C@@H](CCc2nc3cc(C(C)(C)C)ccc3[nH]2)C1 [pinometostat]
Method in brief: as §1

[14] = compound: CC1=C(C(CC(=O)N1)C2=CC=C(C=C2)C(F)(F)F)C(=O)NC3=C(C=C4C(=C3)C=NN4)F
Method in brief: as §1

[15] = compound: CC1=C(C2=C(C=C1)C(=O)C3=CC=CC=C3N2CCCN)C
Method in brief: as §1

Row | Target | log2 fold change (erlotinib) | log2 fold change [1] | log2 fold change [2] | log2 fold change [3] | log2 fold change [4] | log2 fold change [5] | log2 fold change [6] | log2 fold change [7] | log2 fold change [8] | log2 fold change [9] | log2 fold change (IRAK-1-4 Inhibitor I) | log2 fold change (ibrutinib) | log2 fold change [10] | log2 fold change (ralimetinib) | log2 fold change [11] | log2 fold change [12] | log2 fold change [13] | log2 fold change (pinometostat) | log2 fold change [14] | log2 fold change [15]
1 | UBQLN4 (UniProt Q9NRR5) | inactive: 0.016 | inactive: -0.005 | inactive: 0.116 | inactive: -0.008 | inactive: -0.054 | inactive: 0.075 | inactive: 0.013 | inactive: 0.005 | inactive: -0.049 | inactive: 0.041 | inactive: -0.015 | inactive: 0.03 | inactive: 0.043 | inactive: 0.043 | inactive: -0.078 | inactive: 0.084 | inactive: -0.014 | inactive: -0.077 | inactive: 0.025 | inactive: 0.05
2 | UNC45A (UniProt Q9H3U1) | inactive: 0.064 | inactive: 0.1 | inactive: -0.086 | inactive: -0.008 | inactive: 0.039 | inactive: 0 | inactive: 0.007 | inactive: 0.025 | inactive: -0.086 | inactive: -0.138 | inactive: -0.145 | inactive: -0.054 | inactive: 0.045 | inactive: 0.114 | inactive: -0.07 | inactive: -0.182 | inactive: 0.064 | inactive: 0.132 | inactive: -0.027 | inactive: 0.032
3 | UQCRC2 (UniProt P22695) | inactive: 0 | inactive: 0.001 | inactive: 0.065 | inactive: -0.024 | inactive: 0.018 | inactive: 0.027 | inactive: 0.002 | inactive: -0.003 | inactive: 0.008 | inactive: 0.03 | inactive: 0.042 | inactive: 0.001 | inactive: -0.008 | inactive: 0 | inactive: -0.045 | inactive: 0.004 | inactive: -0.019 | inactive: -0.034 | inactive: -0.007 | inactive: 0.028
4 | USP16 (UniProt Q9Y5T5) | inactive: 0.014 | inactive: -0.064 | inactive: -0.352 | inactive: 0.004 | inactive: 0.143 | inactive: 0.275 | inactive: 0.12 | inactive: -0.169 | inactive: -0.23 | inactive: -0.107 | inactive: -0.075 | inactive: -0.09 | inactive: -0.076 | inactive: -0.217 | inactive: 0 | inactive: -0.09 | inactive: 0.028 | inactive: 0.191 | inactive: -0.194 | inactive: -0.013
5 | URI1 (UniProt O94763) | inactive: -0.007 | inactive: 0.003 | inactive: -0.025 | inactive: 0.041 | inactive: 0.033 | inactive: -0.02 | inactive: -0.059 | inactive: -0.03 | inactive: -0.101 | inactive: -0.111 | inactive: -0.053 | inactive: -0.015 | inactive: -0.015 | inactive: -0.039 | inactive: 0.03 | inactive: -0.009 | inactive: 0.065 | inactive: 0.017 | inactive: -0.025 | inactive: 0
6 | UCKL1 (UniProt Q9NWZ5) | inactive: 0.037 | inactive: 0.051 | inactive: -0.007 | inactive: 0.027 | inactive: 0.053 | inactive: -0.001 | inactive: 0.085 | inactive: 0.006 | inactive: -0.012 | inactive: 0.002 | inactive: -0.084 | inactive: 0.019 | inactive: 0.028 | inactive: 0.064 | inactive: -0.047 | inactive: -0.059 | inactive: -0.049 | inactive: 0.006 | inactive: -0.051 | inactive: 0.102
7 | USP30 (UniProt Q70CQ3) | inactive: -0.147 | inactive: -0.026 | inactive: 0.063 | inactive: -0.102 | inactive: 0.253 | inactive: 0.112 | inactive: -0.069 | inactive: 0.083 | inactive: 0.013 | inactive: 0.009 | inactive: 0.039 | inactive: -0.004 | inactive: -0.051 | inactive: 0.064 | inactive: -0.121 | inactive: 0.29 | inactive: 0.278 | inactive: 0.001 | inactive: -0.043 | inactive: -0.044
8 | UBQLN1 (UniProt Q9UMX0) | inactive: -0.008 | inactive: -0.049 | inactive: 0.037 | inactive: -0.019 | inactive: -0.004 | inactive: 0 | inactive: 0.02 | inactive: 0.016 | inactive: -0.004 | inactive: 0.004 | inactive: 0.034 | inactive: 0.054 | inactive: 0 | inactive: 0.019 | inactive: 0.045 | inactive: 0.104 | inactive: -0.004 | inactive: -0.082 | inactive: -0.031 | inactive: 0.019
9 | UGP2 (UniProt Q16851) | inactive: 0.004 | inactive: 0.006 | inactive: 0.057 | inactive: 0.001 | inactive: 0.024 | inactive: 0.003 | inactive: 0.003 | inactive: 0 | inactive: -0.004 | inactive: 0.043 | inactive: 0.006 | inactive: -0.023 | inactive: -0.026 | inactive: -0.078 | inactive: -0.047 | inactive: 0.068 | inactive: -0.031 | inactive: -0.032 | inactive: 0.003 | inactive: 0.065
10 | UBQLN2 (UniProt Q9UHD9) | inactive: -0.002 | inactive: 0.001 | inactive: 0.118 | inactive: -0.013 | inactive: -0.008 | inactive: 0.037 | inactive: 0.034 | inactive: 0.015 | inactive: -0.045 | inactive: 0.008 | inactive: 0.051 | inactive: 0.011 | inactive: -0.006 | inactive: 0.003 | inactive: 0.001 | inactive: 0.076 | inactive: -0.038 | inactive: -0.024 | inactive: -0.012 | inactive: 0.094
11 | USP9X (UniProt Q93008) | inactive: 0.012 | inactive: 0.06 | inactive: -0.012 | inactive: -0.029 | inactive: 0.026 | inactive: 0.008 | inactive: 0.013 | inactive: -0.033 | inactive: 0.002 | inactive: -0.002 | inactive: -0.006 | inactive: -0.041 | inactive: -0.011 | inactive: 0.02 | inactive: -0.117 | inactive: -0.177 | inactive: 0.01 | inactive: 0.042 |  | inactive: 0.038
12 | UXS1 isoform 2 (UniProt Q8NBZ7) | inactive: -0.003 | inactive: -0.1 | inactive: 0.019 | inactive: 0.008 | inactive: -0.012 | inactive: 0.007 | inactive: -0.103 | inactive: 0.021 | inactive: 0.023 | inactive: -0.007 | inactive: -0.071 | inactive: -0.026 | inactive: 0.032 | inactive: -0.001 | inactive: -0.01 | inactive: 0.064 | inactive: 0.059 | inactive: 0.054 | inactive: -0.073 | inactive: 0.04
13 | UNC13D isoform 3 (UniProt Q70J99) | inactive: 0.174 | inactive: -0.022 | inactive: -0.11 | inactive: -0.028 | inactive: 0 | inactive: 0.05 | inactive: 0.024 | inactive: -0.039 | inactive: -0.133 | inactive: -0.174 | inactive: -0.129 | inactive: -0.028 | inactive: -0.08 | inactive: 0.271 | inactive: -0.025 | inactive: -0.343 | inactive: 0.21 | inactive: 0.301 | inactive: -0.06 | inactive: -0.071
14 | VCP (UniProt P55072) | inactive: -0.01 | inactive: -0.018 | inactive: 0.037 | inactive: 0.007 | inactive: -0.016 | inactive: -0.001 | inactive: 0.013 | inactive: -0.002 | inactive: 0.028 | inactive: 0.051 | inactive: 0.046 | inactive: 0.009 | inactive: 0.029 | inactive: -0.004 | inactive: 0.013 | inactive: 0.069 | inactive: -0.045 | inactive: -0.004 | inactive: 0.027 | inactive: -0.013
15 | UGDH (UniProt O60701) | inactive: 0.004 | inactive: 0.134 | inactive: 0.128 | inactive: 0.023 | inactive: 0.046 | inactive: -0.174 | inactive: 0.017 | inactive: 0.043 | inactive: -0.063 | inactive: 0.009 | inactive: -0.019 | inactive: 0.03 | active: -0.616 | inactive: -0.046 | inactive: -0.038 | inactive: 0.017 | inactive: -0.043 | inactive: -0.105 |  | inactive: 0.078
16 | UEVLD (UniProt Q8IX04) | inactive: 0.081 | inactive: -0.058 | inactive: 0.073 | inactive: 0.035 | inactive: 0.037 | inactive: 0.174 |  | inactive: 0.022 | inactive: -0.118 | inactive: 0.03 | inactive: 0.061 | inactive: 0.09 | inactive: 0.014 |  | inactive: -0.231 | inactive: -0.159 |  | inactive: 0.109 | inactive: -0.042 | inactive: 0.224

Part of the list above, as tab-separated lines:
Row	Target	log2 fold change (erlotinib)	log2 fold change [1]	log2 fold change [2]	log2 fold change [3]	log2 fold change [4]	log2 fold change [5]	log2 fold change [6]	log2 fold change [7]	log2 fold change [8]	log2 fold change [9]	log2 fold change (IRAK-1-4 Inhibitor I)	log2 fold change (ibrutinib)	log2 fold change [10]	log2 fold change (ralimetinib)	log2 fold change [11]	log2 fold change [12]	log2 fold change [13]	log2 fold change (pinometostat)	log2 fold change [14]	log2 fold change [15]
6	UCKL1 (UniProt Q9NWZ5)	inactive: 0.037	inactive: 0.051	inactive: -0.007	inactive: 0.027	inactive: 0.053	inactive: -0.001	inactive: 0.085	inactive: 0.006	inactive: -0.012	inactive: 0.002	inactive: -0.084	inactive: 0.019	inactive: 0.028	inactive: 0.064	inactive: -0.047	inactive: -0.059	inactive: -0.049	inactive: 0.006	inactive: -0.051	inactive: 0.102
7	USP30 (UniProt Q70CQ3)	inactive: -0.147	inactive: -0.026	inactive: 0.063	inactive: -0.102	inactive: 0.253	inactive: 0.112	inactive: -0.069	inactive: 0.083	inactive: 0.013	inactive: 0.009	inactive: 0.039	inactive: -0.004	inactive: -0.051	inactive: 0.064	inactive: -0.121	inactive: 0.29	inactive: 0.278	inactive: 0.001	inactive: -0.043	inactive: -0.044
